The values below are quoted from earlier work in PMC12145446, “Development of an AI model for DILI-level prediction using liver organoid brightfield images” (Communications Biology, 2025).

For the series the following is noted: FDA DILIrank category based on clinical data; cited from earlier work.

For the compound `CCN(CC)CC(=O)Nc1c(C)cccc1C` [Lidocaine], the DILIrank entry is recorded as “vNo-DILI-Concern”.
For `CN(C)CCOC(c1ccccc1)c1ccccc1` [Diphenhydramine], the DILIrank result is “vNo-DILI-Concern”.
